Experimental findings from PMC6120190, “Identification of two distinct peptide-binding pockets in the SH3 domain of human mixed-lineage kinase 3” (The Journal of Biological Chemistry, 2018) are described below.

No end group written: not given here.

For the series, the system named is SH3 domain of MLK3. The experiment in a line: X-ray crystal structure of MLK3 SH3-peptide fusion. To be noted: for binding site on the SH3 domain of MLK3: crystal structures: MIP 1.2 Å (PDB 5K26), NS5A APPIPPPR 1.5 Å (PDB 6AQB). More on the design: species or system human.

`CC[C@H](C)[C@H](NC(=O)[C@H](C)N)C(=O)N[C@@H](CCCNC(=N)N)C(=O)N[C@H](C(=O)N[C@@H](CC(N)=O)C(=O)N1CCC[C@H]1C(=O)N[C@@H](CC(N)=O)C(=O)NCC(=O)N[C@H](C(=O)N[C@@H](Cc1c[nH]c2ccccc12)C(=O)N[C@@H](CO)C(=O)N[C@@H](CCCNC(=N)N)C(=O)N[C@@H](CCC(N)=O)C(=O)N[C@@H](C)C(=O)N[C@@H](CCC(=O)O)C(=O)N[C@H](C(=O)N[C@H](C(=O)N[C@@H](CCC(=O)O)C(=O)N[C@@H](CO)C(=O)O)C(C)C)[C@@H](C)O)[C@@H](C)O)[C@@H](C)CC` [MIP]: the “binding site on the SH3 domain of MLK3” value is “binds in a pocket formed between the n-Src loop and β-strands 2–4”. For the same compound, for the setting “MIP-bound vs apo MLK3 SH3, over 40 residues”, the “r.m.s.d. of SH3 structure upon binding” value is 0.41.
Consider “KKAPTPPPRRRRGGGK [NS5A peptide, reference compound]”, for which the “binding site on the SH3 domain of MLK3” value was “interacts with the canonical polyproline-binding site”.
